Reference: PubChem BioAssay AID686938 (Drosophila RNAi Screening Center, 2013)

Test: 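Knock-downs reducing store-operated calcium influx in Drosophila cells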 (primary screen)
Cell system: Drosophila S2R+ cells
Reagent: long dsRNA against Drosophila genes, about 0.25 µg dsRNA per well, roughly 10,000 cells
Duration: 5 days of knock-down before the calcium assay
Conditions: thapsigargin (SERCA pump blocker) to empty calcium stores; entry signal taken 4 min after adding it
Detection: 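Per-well fluo-4 fluorescence in two replicates, unnormalised, measured in resting cells and 4 min after store depletion by the SERCA blocker thapsigargin; ratio of the two present in few wells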
Scale: calcium entry signal: higher = stronger calcium signal after store depletion; resting calcium signal: higher = higher resting calcium signal
Hit rule: 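Hit if the duplicate-averaged plate z-score for entry over resting signal is under −3; wells with weak total dye signal (Fmax z < −2) or more than 5 off-targets removed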
Meaning of the calls: active = strongly reduced calcium entry; inactive = no strong reduction
The deposit covers about 23,000 reagents; below is a random part of those that have a named target and a result. Over the whole deposit, 75 (0.33%) are marked active. 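Raw plate signals without normalisation; calls rest on plate z-scores that were not deposited; ratio present for only 364 wells.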 Entries without a mark were called inactive. A plus sign joins genes that one reagent is predicted to hit. Not given: the dose of the treatment.

gene | PubChem SID | calcium entry signal, replicate 1 (fluorescence units) | calcium entry signal, replicate 2 (fluorescence units) | resting calcium signal, replicate 1 (fluorescence units) | resting calcium signal, replicate 2 (fluorescence units)
CG2217 + CG42740 | SID104193933 | 3.62e7 | 5.22e7 | 1.79e7 | 2.26e7
CG11168 | SID104194084 | 4.95e7 | 4.23e7 | 2.25e7 | 1.88e7
trc (tricornered) | SID104191198 | 3.47e7 | 5.26e7 | 1.59e7 | 2.18e7
CG10344 | SID104183858 | 2.03e7 | 2.99e7 | 1.07e7 | 1.27e7
Vha68-1 (Vacuolar H[+] ATPase 68kD subunit 1) | SID104183262 | 5.12e7 | 3.94e7 | 2.26e7 | 1.67e7
sno (strawberry notch) | SID104200170 | 4.53e7 | 4.54e7 | 2.16e7 | 2.10e7
dind (diamond) | SID104196086 | 3.19e7 | 2.50e7 | 1.50e7 | 1.15e7
cert (ceramide transfer protein) | SID104189466 | 4.08e7 | 2.69e7 | 2.78e7 | 1.13e7
laf (labial associated factor) | SID104192038 | 3.34e7 | 5.33e7 | 1.62e7 | 2.36e7
CG18266 | SID104182451 | 4.48e7 | – | 2.10e7 | –
CG3803 | SID104184212 | 4.17e7 | 3.80e7 | 2.10e7 | 1.82e7
CG43689 | SID104197838 | 2.63e7 | 3.52e7 | 1.32e7 | 1.47e7
CG43689 | SID104198175 | 2.12e7 | 2.98e7 | 1.18e7 | 1.49e7
CG43689 | SID104201926 | 2.99e7 | 4.86e7 | 1.68e7 | 2.29e7
CG43689 | SID104202427 | 4.92e7 | 3.19e7 | 2.39e7 | 1.41e7
fbp (fructose-1,6-bisphosphatase) | SID104181869 | 4.87e7 | – | 2.31e7 | –
tj (traffic jam) | SID104181803 | 6.02e7 | 4.64e7 | 2.77e7 | 2.24e7
ms(3)76Cc (male sterile (3) 76Cc) | SID104190863 | 2.65e7 | 4.49e7 | 1.33e7 | 2.03e7
ms(3)76Cc (male sterile (3) 76Cc) | SID104201324 | 3.27e7 | 3.31e7 | 1.83e7 | 1.55e7
Tsen34 (tRNA splicing endonuclease subunit 34) | SID104202289 | 2.45e7 | 2.83e7 | 1.31e7 | 1.26e7
Not1 | SID104186579 | 3.84e7 | 3.85e7 | 1.77e7 | 1.74e7
Not1 | SID104186586 | 2.74e7 | 2.30e7 | 1.40e7 | 1.15e7
CG18536 | SID104186555 | 4.63e7 | 7.08e7 | 1.96e7 | 2.94e7
Mau2 | SID104195342 | 3.71e7 | 5.37e7 | 1.59e7 | 2.24e7
CG11902 | SID104194226 | 2.74e7 | 3.08e7 | 1.54e7 | 1.58e7
CG4594 | SID104182554 | 3.92e7 | – | 1.88e7 | –
lds (lodestar) | SID104196780 | 5.09e7 | 3.30e7 | 2.17e7 | 1.56e7
lama (lamina ancestor) | SID104191153 | 4.62e7 | 4.74e7 | 2.87e7 | 1.88e7
Porin2 | SID104182376 | 2.40e7 | 3.29e7 | 1.18e7 | 1.35e7
eIF3a (eukaryotic translation initiation factor 3 subunit a) | SID104192131 | 1.12e7 | 1.53e7 | 7.95e6 | 1.05e7
RhoGAP5A (Rho GTPase activating protein at 5A) | SID104198086 | 2.41e7 | 2.44e7 | 1.10e7 | 1.17e7
defl (deflated) | SID104190092 | 4.99e7 | 2.68e7 | 3.64e7 | 1.38e7
CG13404 | SID104199328 | 2.80e7 | 2.84e7 | 1.46e7 | 1.16e7
MED14 (Mediator complex subunit 14) | SID104188027 | 2.80e7 | 2.26e7 | 1.62e7 | 1.55e7
CG30195 | SID104183947 | 3.16e7 | 4.12e7 | 1.70e7 | 1.91e7
CG31038 | SID104194843 | 3.35e7 | 4.22e7 | 1.75e7 | 2.06e7
CG31038 | SID104196118 | 5.08e7 | 6.43e7 | 2.33e7 | 2.44e7
CG31038 | SID104196119 | 3.98e7 | 5.71e7 | 2.26e7 | 2.38e7
atos (atossa) | SID104187110 | 3.58e7 | 3.44e7 | 1.79e7 | 1.62e7
l(3)80Fg (lethal (3) 80Fg) | SID104201337 | 3.41e7 | 3.61e7 | 1.90e7 | 1.57e7
l(3)80Fg (lethal (3) 80Fg) | SID104201717 | 2.89e7 | 3.26e7 | 1.40e7 | 1.87e7
CG15712 | SID104186375 | 5.30e7 | 4.54e7 | 2.32e7 | 2.19e7
CG6055 | SID104182715 | 4.08e7 | 3.84e7 | 2.01e7 | 1.67e7
CG12020 | SID104188018 | 3.87e7 | 3.86e7 | 1.91e7 | 1.87e7
mrt (martik) | SID104195276 | 3.81e7 | 6.30e7 | 2.02e7 | 2.53e7
kek1 (kekkon 1) | SID104183343 | 5.33e7 | 3.25e7 | 2.31e7 | 1.62e7
Kdm5 (Lysine demethylase 5) | SID104182925 | 4.17e7 | – | 2.37e7 | –
Naprt (Nicotinate phosphoribosyltransferase) | SID104180422 | 4.83e7 | – | 2.85e7 | –
Jabba | SID104186313 | 4.06e7 | 3.45e7 | 1.90e7 | 1.64e7
CG34433 | SID104194869 | 3.95e7 | 5.48e7 | 1.89e7 | 2.21e7
CG43693 | SID104188878 | 3.64e7 | 4.72e7 | 1.96e7 | 2.17e7
CG43693 | SID104190417 | 4.18e7 | 3.03e7 | 2.74e7 | 1.37e7
lncRNA:CR43434 (long non-coding RNA:CR43434) | SID104193558 | 3.81e7 | 3.54e7 | 1.96e7 | 1.78e7
spn-B (spindle B) | SID104196855 | 2.45e7 | 3.45e7 | 1.30e7 | 5.27e7
CG32983 | SID104201853 | 3.88e7 | 4.03e7 | 1.78e7 | 2.17e7
Miox (Myo-inositol oxygenase) | SID104190539 | 3.28e7 | 3.41e7 | 1.70e7 | 1.63e7
CG18180 | SID104190096 | 5.36e7 | 4.00e7 | 3.48e7 | 1.61e7
CG43108 | SID104185446 | 3.02e7 | 3.81e7 | 1.43e7 | 1.99e7
CG14506 | SID104194650 | 3.23e7 | 4.64e7 | 1.57e7 | 1.93e7
Osi4 (Osiris 4) | SID104191926 | 4.13e7 | 3.59e7 | 2.11e7 | 1.69e7
CG32762 | SID104198090 | 2.62e7 | 3.88e7 | 1.41e7 | 1.95e7
GAA1 (Glycosylphosphatidylinositol anchor attachment 1) | SID104198059 | 2.70e7 | 2.94e7 | 1.25e7 | 1.41e7
CG42811 | SID104195159 | 3.93e7 | 6.78e7 | 2.33e7 | 2.70e7
Polr3F (RNA polymerase III subunit F) | SID104195577 | 2.73e7 | 3.18e7 | 5.40e7 | 1.38e7
Acp76A (Accessory gland protein 76A) | SID104189457 | 2.66e7 | 4.64e7 | 1.29e7 | 1.87e7
Arfip (Arfaptin) | SID104194971 | 2.50e7 | 3.29e7 | 1.15e7 | 1.55e7
Hmt-1 (Heavy metal tolerance factor 1) | SID104195347 | 2.43e7 | 2.30e7 | 1.16e7 | 1.08e7
CG3505 | SID104195281 | 3.11e7 | 3.49e7 | 1.43e7 | 1.61e7
Tpc1 | SID104195406 | 4.09e7 | 4.22e7 | 1.84e7 | 2.24e7
Tpc1 | SID104195866 | 4.52e7 | 3.99e7 | 1.85e7 | 1.78e7
ix (intersex) | SID104186117 | 3.43e7 | 3.96e7 | 1.83e7 | 1.74e7
CSN6 (COP9 signalosome subunit 6) | SID104196385 | 2.24e7 | 2.38e7 | 1.25e7 | 1.30e7
CG33217 | SID104202266 | 3.75e7 | 5.21e7 | 2.05e7 | 2.22e7
Cyt-b5 (Cytochrome b5) | SID104187184 | 2.91e7 | 2.43e7 | 1.25e7 | 1.22e7
angel | SID104184462 | 4.03e7 | – | 2.04e7 | –
angel | SID104201109 | 2.60e7 | 3.03e7 | 1.25e7 | 1.35e7

9 consecutive reagents from above, quoted:
gene | PubChem SID | calcium entry signal, replicate 1 (fluorescence units) | calcium entry signal, replicate 2 (fluorescence units) | resting calcium signal, replicate 1 (fluorescence units) | resting calcium signal, replicate 2 (fluorescence units)
CG43689 | SID104202427 | 4.92e7 | 3.19e7 | 2.39e7 | 1.41e7
fbp (fructose-1,6-bisphosphatase) | SID104181869 | 4.87e7 | – | 2.31e7 | –
tj (traffic jam) | SID104181803 | 6.02e7 | 4.64e7 | 2.77e7 | 2.24e7
ms(3)76Cc (male sterile (3) 76Cc) | SID104190863 | 2.65e7 | 4.49e7 | 1.33e7 | 2.03e7
ms(3)76Cc (male sterile (3) 76Cc) | SID104201324 | 3.27e7 | 3.31e7 | 1.83e7 | 1.55e7
Tsen34 (tRNA splicing endonuclease subunit 34) | SID104202289 | 2.45e7 | 2.83e7 | 1.31e7 | 1.26e7
Not1 | SID104186579 | 3.84e7 | 3.85e7 | 1.77e7 | 1.74e7
Not1 | SID104186586 | 2.74e7 | 2.30e7 | 1.40e7 | 1.15e7
CG18536 | SID104186555 | 4.63e7 | 7.08e7 | 1.96e7 | 2.94e7
